Assay [1] has as its system extracellular chromatin (NETs). The experiment in a line: Extracellular chromatin (NETs) binding to coated nitinol disks, Sytox Green staining. Further details: species or system human. The following applies: ratio of chromatin binding to platelet binding (% of max). The source says:
Nitinol disks are left untouched (bare metal) or coated with the tested chromatin ligands following a polydopamine, DBCO-PEG4-amine and azide derivative ligand sequential dip-coating layering procedure.
Extracellular chromatin adhering to the disk surface was stained with the cell impermeant nuclear dye Sytox Green.
Each dot corresponds to the mean binding (% of max, mean±SEM) of chromatin (X-axis) and platelet (Y-axix) with the standard error bars parallel to the respective axis.
Different linkers were combined with piperaquine and the resulting azide derivatives were used for coating nitinol disks (N=6 for each compound), following the described 3-step dip-coating procedure. Platelet adhesion (left panel) was evaluated by analyzing the surface and intensity of the phalloidin staining (green fluorescence) after immersion of the disks (N^o=6/coating) for 10 min in blood withdrawn in PPAK (thrombin inhibitor providing a transient anticoagulation). The binding of extracellular chromatin was evaluated by applying for 3 minutes the disks on the bottom of wells in which fresh human neutrophils were stimulated with nigericin for 4 hours, to promote the formation of neutrophil extracellular traps (NETs). Extracellular chromatin was stained with the cell impermeant nuclear dye Sytox Green.

Assay [2] deals with thrombus material (DNA and proteins). The following applies: coated nitinol disks vs bare metal; thrombus slice 5 minutes at 37° C. in human plasma; Hoechst 33342 / Evans Blue staining.

For `O=C(O)c1cn(C2CC2)c2cc(N3CCNCC3)c(F)cc2c1=O` [Ciprofloxacin, reference compound], the Chromatin/Platelet binding ratio in assay [1] came out at 0.86. The “DNA and proteins captured from the thrombus (Integrated Density)” value in assay [2] is “capture more DNA and proteins”.

Values taken from US20230241057A1, “COMPOUNDS FOR THE PREVENTION, TREATMENT AND DIAGNOSIS OF THROMBI” (INSERM (INSTITUT NATIONAL DE LA SANTÉ ET DE LA RECHERCHE …, priority 2020, published 2023).
